Taken from: PubChem BioAssay AID1259405 (NCATS, 2018)

Purpose: 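Silenced genes that increase secreted GFP made by CHO cells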 (primary screen)
Cells: Chinese hamster CHO-K1 ovary cells with stable secreted eGFP expression
Reagents: single siRNA against mouse genes, 0.8 pmol siRNA per well (2 µl of 400 nM stock)
Timing: 3 days
Measured: 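Percent of the per-plate non-targeting control median for intracellular GFP per well by laser scanning cytometry and for cell viability by ATP luminescence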
Direction: GFP, % of control: higher = more GFP per well, higher productivity; viability (ATP), % of control: higher = more viable cells (more ATP)
Rule for the call: 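Called active when intracellular GFP, relative to negative control, is at or above 120%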
The whole screen tested about 50,000 reagents; below is a part drawn at random. Of all reagents, about 4,000 (8%) got an active call. 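Mouse siRNA library applied to hamster cells; one well for each siRNA.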 The numbers tell different reagents against one gene apart.

no.	target gene	reagent no.	GFP, % of control	viability (ATP), % of control	outcome
1	Rnase10	1	26	46.5	inactive
2	Rnase10	2	59.8	106	inactive
3	Rnase10	3	49.8	31.9	inactive
4	Dsn1	1	95	111	inactive
5	Dsn1	2	106	70.4	inactive
6	Dsn1	3	69.1	82.7	inactive
7	Akap10	1	51.5	57.4	inactive
8	Akap10	2	114	93.5	inactive
9	Spon2	1	151	122	active
10	Spon2	2	85.1	72.2	inactive
11	Rab3il1	1	124	96.8	active
12	Rab3il1	2	71.4	88.4	inactive
13	Rab3il1	3	93.7	74.4	inactive
14	Dnajc1	1	84.7	80.4	inactive
15	Dnajc1	2	71.4	86	inactive
16	Dnajc1	3	76.4	79.1	inactive
17	Rbm17	1	95.6	56	inactive
18	Rbm17	2	84.5	83.9	inactive
19	Rbm17	3	101	85.1	inactive
20	Or5b111	1	61.7	68.1	inactive
21	Or5b111	2	81	111	inactive
22	Or5b111	3	78.2	96	inactive
23	Arrb1	1	35	78.4	inactive
24	Arrb1	2	56.2	70.6	inactive
25	Sh3bgrl2	1	40.3	84.5	inactive
26	Sh3bgrl2	2	11.7	15.3	inactive
27	Sh3bgrl2	3	77.4	85.4	inactive

Entries above called active, once more:
target gene	reagent no.	GFP, % of control	viability (ATP), % of control	outcome
Spon2	1	151	122	active
Rab3il1	1	124	96.8	active

Next results follow:
no.	target gene	reagent no.	GFP, % of control	viability (ATP), % of control	outcome
28	Cimip2b	1	84.6	69.8	inactive
29	Cimip2b	2	18.2	19.4	inactive
30	Cimip2b	3	66.8	68.1	inactive
31	Osgin2	1	37.8	67.7	inactive
32	Osgin2	2	74.1	98.6	inactive
33	Osgin2	3	130	156	active
34	Cpsf4	1	67.4	77.2	inactive
35	Cpsf4	2	45.3	48.3	inactive
36	Cpsf4	3	63.9	80	inactive
37	Nrn1	1	70.4	69.3	inactive
38	Nrn1	2	84.3	74.3	inactive
39	Nrn1	3	78.8	49.8	inactive
40	Snx20	1	55.2	59.8	inactive
41	Snx20	2	103	93.7	inactive
42	Snx20	3	98.8	132	inactive
43	Ube2a	1	84	80	inactive
44	Ube2a	2	68.8	103	inactive
45	Ube2a	3	91.2	109	inactive
46	Prkra	1	72.2	124	inactive
47	Prkra	2	95.9	85.4	inactive
48	Vmn1r233	1	88	76.1	inactive
49	Vmn1r233	2	49.7	68.3	inactive
50	Vmn1r233	3	37.4	51.1	inactive
51	Skint7	1	192	69.1	active
52	Skint7	2	101	97.5	inactive
53	Skint7	3	192	125	active
54	Xkr6	1	58.3	79.5	inactive
55	Xkr6	2	68.1	73	inactive
56	Xkr6	3	170	134	active
57	Esyt1	1	110	97.5	inactive
58	Esyt1	2	105	83.4	inactive
